Results reported in PubChem BioAssay AID336 (DTP/NCI, 2004).
The list is a part of this screen's results and no random one: it covers a few groups of compounds. Not every dose and run of a compound is shown. T/C: endpoint of the treated group in % of that of the vehicle group. Some entries give survivors of the animals treated and no T/C: the source holds a T/C of zero for them, seemingly a mark for toxic or unscored doses. Some survivor counts are full or nearly so, which does not show that the dose was tolerated: the source hardly ever lists a survival T/C far under the control, and the zero likely stands for such cases as well. Counts of survivors are from the toxicity check (mostly the fifth day) where no day follows; animals may have died later. Schedule codes are those of the source, read here as Q, the interval in days (D) or hours (H), X, the number of doses. Where survival is the endpoint, the PubChem record calls one and a half times the control and up active, and a quarter to a half above the control has no call in these data; cut-offs in other NCI protocols can differ. Some entries hold several experiments; the values are given in rising order. Some T/C values are followed by the survivors on the day toxicity was checked, most often the fifth; without a count or a note in brackets, all were alive then.

Tested on: BDF1 mice, P388/VCR leukemia ip, median survival T/C
Assay: NCI In Vivo Anticancer Drug Screen. Data for tumor model P388 Leukemia resistant to Vincristine; NSC 67574 (intraperitoneal) in B6D2F1 (BDF1) mice
Conditions: T/C endpoint: median survival time, schedule: Q01DX010 (ip), vehicle: saline, higher T/C = longer survival
Description: The antitumor activity of compounds was measured in mice bearing transplantable tumors. Survival or tumor size were measured and the results are expressed as the measurement made in the treated group (T) divided by the measurement made in the vehicle treated control group (C). The tumor model used in this assay is P388 Leukemia resistant to Vincristine; NSC 67574 (intraperitoneal) in B6D2F1 (BDF1) mice

NC1CCCCC1.O=P(O)(N(CCCl)CCCl)N1CC1
T/C (dose: 1.25 mg/kg/injection): 121 [5 of 6 alive] and 125 % of control
T/C (dose: 2.5 mg/kg/injection): 121 and 139 % of control
T/C (dose: 5.0 mg/kg/injection): 157 and 171 % of control
T/C (dose: 10.0 mg/kg/injection): 200 and 214 % of control

Cc1[nH]c(=O)[nH]c(=O)c1N(CCCl)CCCl
T/C (dose: 0.13 mg/kg/injection): 110 % of control
T/C (dose: 0.25 mg/kg/injection): 110 % of control
T/C (dose: 0.5 mg/kg/injection): 133 and 164 % of control
T/C (dose: 1.0 mg/kg/injection): 90 % of control
survivor count (dose: 1.0 mg/kg/injection): 6 of 6
survivor count (dose: 2.0 mg/kg/injection): 6 of 6
survivor count (dose: 4.0 mg/kg/injection): 6 of 6

CN(N=O)C(=N)N[N+](=O)[O-]
T/C (dose: 8.0 mg/kg/injection): 119 and 146 % of control
T/C (dose: 16.0 mg/kg/injection): 138 and 146 % of control
survivor count (dose: 32.0 mg/kg/injection): 6 of 6
survivor count (dose: 64.0 mg/kg/injection): 6 of 6
